No constants are given. Whether binding was seen depends on the method and setting. Binding seen in cells or lysates may run through a third protein. Some binding calls cover weakened binding; strength is not graded here. Where a sequence is shown, tags or fusion partners need not be part of it.

Among the data in doi:10.1101/2025.03.04.641524 are binding values, retold here.

For this test, the target named is T1, SpSwi6-5Flag (Schizosaccharomyces pombe) (UniProt P40381).
T1 sequence: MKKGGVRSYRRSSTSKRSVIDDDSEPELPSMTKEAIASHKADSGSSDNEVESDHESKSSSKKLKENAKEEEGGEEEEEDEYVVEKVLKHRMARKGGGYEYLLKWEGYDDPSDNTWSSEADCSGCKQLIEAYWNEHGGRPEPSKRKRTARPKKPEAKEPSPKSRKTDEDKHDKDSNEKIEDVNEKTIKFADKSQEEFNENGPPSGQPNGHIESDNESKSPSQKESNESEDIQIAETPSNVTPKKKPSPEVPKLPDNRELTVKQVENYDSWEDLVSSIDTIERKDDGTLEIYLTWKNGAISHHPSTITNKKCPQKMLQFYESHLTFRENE
Kind of test: co-IP.

Consider “histone H3 di-methylated on lysine 9 (H3K9me2) (from UniProt P61830 1-136)”, for which the binding result is “binds”.

For the substance “histone H3 tri-methylated on lysine 9 (H3K9me3) (from UniProt P61830 1-136)”, the binding result is recorded as “binds”.
